At least one structure is not confirmed: it was looked up by name or label, or the drawing left a doubt.
How the values were obtained:
[1] = test system: heterozygous bw^D flies (bw^D/+); test: Polyamides fed to developing heterozygous brown-dominant flies; type: in vivo, Drosophila melanogaster; conditions: fly stock bw^D/bw^+; grade, key not given
Protocol: It was therefore of great interest to test whether P31 would affect the eye phenotype of heterozygous bw^D flies. […] The experiment is similar to that described above for w^m4. Vials with semi-synthetic fly food medium were prepared containing a final concentration of 100 μM P31, P9 or no compound. Egg laying was allowed to proceed for 36 hours by homozygous (bw^D/bw^D) females that were crossed with scarlet (st/st) males. The progeny from this cross is heterozygous for the brown locus and homozygous for scarlet (bw^D/+; st/st). In a scarlet background, a modification of the bw^D eye color is much easier to observe (Talbert et al., 1994).
Drug treatments of the bw^D flies were performed as for w^m4 flies except that 30 parental females were allowed to lay eggs. To obtain the heterozygous bw^D/+; st/st progeny, 30 virgin bw^D/bw^D; st/st homozygous females were mated with scarlet homozygous males for about 5 days before transferring them to experimental vials for egg laying.
The lethality of the progenies was calculated by counting the dead bodies and the total empty pupal shells. The A6 to A5 transformation was detected by bristles that form on abdominal segment A6 on males. All male adult flies obtained (˜50) were scored. […]

w^m4 flies = test: Polyamides fed to developing white-mottled flies; type: in vivo, Drosophila melanogaster; parameters: PEV: key to the marks not given beside the values; conditions: fly stock w^m4, key not given
Source text: The eye phenotype of w^m4 flies is quite heterogeneous. About 65% of the eyes are strongly variegated, ranging from quasi-white with little pigment to those containing a generally white background and a number of red patches (defined as the white-mottled class). The remaining flies have eyes with a darker appearance with often larger red patches in an orange background (red-mottled class). Given the phenotypic heterogeneity of w^m4 flies, we carried out our experiments on a relatively large scale by mixing these compounds directly with semi-synthetic fly medium. Vials were prepared containing a final concentration of either 100 μM P9, P31 or no compound. […]
For eye phenotype analysis, young flies born on the same day were transferred to a drug-free vial and scored 5 days thereafter. […] Where in the absence of the drug, 62% of the eyes were scored as white-mottled, only 11% retained this phenotype for the flies raised in the presence of P9. […]
Vials for egg laying containing polyamides were prepared as follows: 250 nmoles of P9, P31 was dissolved in 150 μl ddH2O and then mixed with 2.35 g of semi-synthetic fly media pre-heated at 60° C. […] New-born flies of the same day were transferred to a fresh vial and scored after 5 days for eye phenotypes (Girard et al., 1998). For visual inspection of eye-phenotypes (Table 1), both female and male flies were scored. […]

CN(C)CCCNC(=O)CCNC(=O)c1cc(NC(=O)c2cc(NC(=O)c3cc(NC(=O)CCNC(=O)c4cc(NC(=O)c5cc(NC(=O)c6cccn6C)cn5C)cn4C)cn3C)cn2C)cn1C [Compound P9, PyPyPy-β-PyPyPy-β-Dp]
Haltere to Wing [1]: −
PEV [1]: −
Haltere to Wing (w^m4 flies; grade): −
PEV (w^m4 flies; suppression grade): +++
